Values of other authors in US20150257381A1, “ANTIMICROBIAL POLYMERIC FILM AND COMPOSITION” (Shenkar College of Engineering and Design, priority 2014, published 2015).
At least one read-out could not be matched to a standard name with certainty.

Settings: @30° C.; according to Camacho et al.

C=COC(C)=O [vinyl acetate]
solubility parameter: 8.99 (cal/cm^3)^0.5
